# Results from publication PMC3625590, “NBM-T-L-BMX-OS01, Semisynthesized from Osthole, Is a Novel Inhibitor of Histone Deacetylase and Enhances Learning and Memory in Rats” (Evidence-based Complementary and Alternative Medicine : eCAM, 2013).
# Where a name gives a salt, the structure may show the parent alone.
# Tested on: Sco-induced amnesia rats
# Assay: Passive one-way avoidance, Sco-induced memory impairment
# Assay type: in vivo, Sprague-Dawley rats
# Details: Sco 1.5 mg/kg/d; BMX or SAHA 5 mg/kg/d i.p.; 1 day and 7 days after footshock
# Description: SAHA was supplied by NatureWise Biotech and Medicals Corporation (Taipei, Taiwan). […] (St. Louis, MO, USA). The BMX and SAHA stock (100 mg/mL) was dissolved in DMSO and diluted with saline to a final concentration of 0.5 mg/mL (in 0.5% DMSO/saline). Sco was dissolved in saline to a final concentration of 0.15 mg/mL based on previous studies. SD rats were randomly divided into 3 groups. For the naïve animal experiments, the BMX-injected or SAHA-injected groups were injected with BMX (5 mg/kg/d) or SAHA (5 mg/kg/d) intraperitoneally 7 d prior to behavioral experiments and during the experimentation. The control group received the 0.5% DMSO/saline injection. The injection volume was 10 μL/g of body weight. The injections were performed once per day. For the amnesia experiment, the protocol was adopted from previous studies with modifications. The Sco-injected (SAHA + Sco) or (BMX + Sco)-injected groups were injected with Sco (1.5 mg/kg/d), SAHA (5 mg/kg/d) or BMX (5 mg/kg/d), intraperitoneally 7 d prior to behavioral experiments and during the experimentation. The control group received the 0.5% DMSO/saline injection. The injection volume was 10 μL/g of body weight. […] The behavioral task, including the training and testing procedures, was recorded between 8:00 AM and 6:00 PM. […]
structure (smiles),measurement,value
"CN1[C@@H]2C[C@@H](OC(=O)[C@H](CO)c3ccccc3)C[C@H]1[C@@H]1O[C@@H]12 [Sco, Scopolamine hydrochloride]",retention time in the illuminated chamber,showed less retention time in the illuminated chamber
